Experimental findings from the supplement of paper PMC10849652 are described below.

The chains behind the UniProt entries cited, without tags or fusion partners. Where a name states a change or a piece, a line headed by the entry shows the natural chain unless it says otherwise.
UniProt Q9UKJ5: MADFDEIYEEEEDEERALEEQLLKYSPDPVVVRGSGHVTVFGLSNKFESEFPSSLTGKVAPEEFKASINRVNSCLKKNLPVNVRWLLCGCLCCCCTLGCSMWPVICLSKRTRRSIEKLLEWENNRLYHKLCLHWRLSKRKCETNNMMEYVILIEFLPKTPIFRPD
UniProt Q7Z460: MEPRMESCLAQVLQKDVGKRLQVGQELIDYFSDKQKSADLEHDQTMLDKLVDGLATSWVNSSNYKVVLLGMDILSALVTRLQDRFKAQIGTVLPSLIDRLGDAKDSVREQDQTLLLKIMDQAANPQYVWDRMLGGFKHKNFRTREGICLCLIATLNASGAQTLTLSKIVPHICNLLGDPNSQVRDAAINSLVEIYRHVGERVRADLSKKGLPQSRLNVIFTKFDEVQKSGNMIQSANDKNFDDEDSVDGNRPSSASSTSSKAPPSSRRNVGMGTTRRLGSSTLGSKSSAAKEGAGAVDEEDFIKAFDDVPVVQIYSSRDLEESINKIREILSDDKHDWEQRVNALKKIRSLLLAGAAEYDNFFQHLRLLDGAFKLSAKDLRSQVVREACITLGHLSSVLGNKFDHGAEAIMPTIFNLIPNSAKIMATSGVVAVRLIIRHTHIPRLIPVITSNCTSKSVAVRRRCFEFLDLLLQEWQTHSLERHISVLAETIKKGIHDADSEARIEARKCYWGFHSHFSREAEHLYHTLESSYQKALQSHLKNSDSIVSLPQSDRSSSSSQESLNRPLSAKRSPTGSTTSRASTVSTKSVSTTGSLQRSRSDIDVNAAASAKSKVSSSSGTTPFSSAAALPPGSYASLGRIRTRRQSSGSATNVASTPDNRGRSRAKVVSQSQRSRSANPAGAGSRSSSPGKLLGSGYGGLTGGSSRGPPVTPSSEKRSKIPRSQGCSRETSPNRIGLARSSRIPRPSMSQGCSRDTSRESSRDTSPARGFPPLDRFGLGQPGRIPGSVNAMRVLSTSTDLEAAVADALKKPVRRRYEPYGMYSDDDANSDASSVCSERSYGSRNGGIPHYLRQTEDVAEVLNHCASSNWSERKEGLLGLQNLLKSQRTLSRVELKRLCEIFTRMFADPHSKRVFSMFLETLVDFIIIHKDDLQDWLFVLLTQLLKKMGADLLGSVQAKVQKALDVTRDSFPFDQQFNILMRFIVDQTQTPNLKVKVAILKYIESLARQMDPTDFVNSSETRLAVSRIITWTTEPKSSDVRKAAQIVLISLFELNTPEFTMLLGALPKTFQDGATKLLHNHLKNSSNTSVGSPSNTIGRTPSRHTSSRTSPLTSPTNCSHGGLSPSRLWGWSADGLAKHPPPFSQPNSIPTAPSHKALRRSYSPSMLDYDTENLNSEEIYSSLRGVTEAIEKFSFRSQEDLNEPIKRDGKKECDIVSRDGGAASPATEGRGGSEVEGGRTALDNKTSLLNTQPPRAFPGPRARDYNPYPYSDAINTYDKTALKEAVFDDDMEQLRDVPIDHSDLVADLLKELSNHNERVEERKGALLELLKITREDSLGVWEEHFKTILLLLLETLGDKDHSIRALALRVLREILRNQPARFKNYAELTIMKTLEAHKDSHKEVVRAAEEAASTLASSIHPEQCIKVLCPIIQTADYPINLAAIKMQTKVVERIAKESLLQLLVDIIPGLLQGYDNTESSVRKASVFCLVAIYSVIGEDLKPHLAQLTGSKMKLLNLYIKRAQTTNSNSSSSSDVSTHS
UniProt O75503: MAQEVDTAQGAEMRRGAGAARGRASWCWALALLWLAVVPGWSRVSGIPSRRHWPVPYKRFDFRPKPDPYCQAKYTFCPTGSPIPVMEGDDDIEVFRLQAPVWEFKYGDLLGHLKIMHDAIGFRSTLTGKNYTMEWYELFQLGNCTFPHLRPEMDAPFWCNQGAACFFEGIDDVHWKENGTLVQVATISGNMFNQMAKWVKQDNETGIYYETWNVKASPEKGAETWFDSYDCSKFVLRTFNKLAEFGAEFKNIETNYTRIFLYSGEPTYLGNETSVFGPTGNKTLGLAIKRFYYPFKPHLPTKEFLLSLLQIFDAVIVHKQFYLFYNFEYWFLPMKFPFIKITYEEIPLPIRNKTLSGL
UniProt Q5VXU3: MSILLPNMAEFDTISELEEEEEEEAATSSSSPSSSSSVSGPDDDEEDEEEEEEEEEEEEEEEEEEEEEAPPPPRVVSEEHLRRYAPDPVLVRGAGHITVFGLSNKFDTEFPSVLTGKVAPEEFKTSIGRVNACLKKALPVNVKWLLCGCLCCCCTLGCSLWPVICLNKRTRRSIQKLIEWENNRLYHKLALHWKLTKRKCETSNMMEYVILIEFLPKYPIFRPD
UniProt Q8N0X4: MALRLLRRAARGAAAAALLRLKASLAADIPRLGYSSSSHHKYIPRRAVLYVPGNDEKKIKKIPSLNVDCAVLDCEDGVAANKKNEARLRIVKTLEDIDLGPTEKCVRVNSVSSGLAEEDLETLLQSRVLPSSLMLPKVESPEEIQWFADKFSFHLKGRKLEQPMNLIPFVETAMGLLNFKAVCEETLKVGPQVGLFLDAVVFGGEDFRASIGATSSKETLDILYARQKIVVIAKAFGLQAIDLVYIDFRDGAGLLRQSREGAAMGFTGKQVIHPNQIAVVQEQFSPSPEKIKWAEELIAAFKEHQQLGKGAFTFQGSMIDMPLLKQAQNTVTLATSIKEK

Common to all, as to test: log2 fold change, soluble protein after heating vs DMSO (PISA); higher = thermal stabilisation; K562 lysate, 10 uM; active = over 0.2 and 3.5 SD of the protein, either way, in both replicates (recomputed)
Compound in one assay: CCCS(=O)(=O)Nc1ccc(F)c(C(=O)c2c[nH]c3ncc(-c4ccc(Cl)cc4)cc23)c1F [vemurafenib]
The method in brief: (§1)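 Soluble protein was defined as the supernatant remaining after 21,000xg for 90 min, following pooling of heated aliquots and adjustment to 0.5% NP-40 at 4°C. Before that, crude K562 extract at 1 mg/mL protein in PBS pH 7.4 with 1 mM MgCl2 was treated with 10 μM compound for 30 min and heated for 3 min across 48°C-58°C. Quantification used TMTpro 16plex LC-MS/MS with channel sums equalised, and values are log-two fold changes in thermal stability relative to solvent controls from duplicates.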

Compound in assay [1]: CCCS(=O)(=O)Nc1ccc(F)c(C(=O)c2c[nH]c3ncc(Cl)cc23)c1F
The method in brief: as §1

Compound in another assay: CCN(CCCOc1ccc2c(Nc3cc(CC(=O)Nc4cccc(F)c4)[nH]n3)ncnc2c1)CCOP(=O)(O)O [barasertib]
The method in brief: as §1

Compound in assay [2]: CC[C@@H]1C(=O)N(C)c2cnc(Nc3ccc(C(=O)NC4CCN(C)CC4)cc3OC)nc2N1C1CCCC1
The method in brief: as §1

Compound in another assay: CC[C@@H]1C(=O)N(C)c2cnc(Nc3ccc(C(=O)N[C@H]4CC[C@H](N5CCN(CC6CC6)CC5)CC4)cc3OC)nc2N1C(C)C [volasertib]
The method in brief: as §1

Compound in assay [3]: CCn1c(C(=O)N(C2CC2)C2CC2)cc2c3c(ncn3C)c(Nc3cc(C)n(C)n3)nc21
The method in brief: as §1

Compound in assay [4]: CCn1cc(-c2ccnc3[nH]c(-c4cccc(CN(C)C)c4)cc23)c(-c2ccc(NC(=O)N(C)C)cc2)n1
The method in brief: as §1

Compound in assay [5]: CN1CCC(CNc2ccc3ncc(-c4cccc(OC(F)(F)F)c4)n3n2)CC1
The method in brief: as §1

Compound in the next assay: CN1CCN(CCOc2cc(OC3CCOCC3)c3c(Nc4c(Cl)ccc5c4OCO5)ncnc3c2)CC1 [saracatinib]
The method in brief: as §1

Compound in the next assay: CN1CC[C@H](c2c(O)cc(O)c3c(=O)cc(-c4ccccc4Cl)oc23)[C@H](O)C1 [alvocidib]
The method in brief: as §1

Compound in another assay: CN1CCc2c(c3ccccc3n2Cc2ccc(C(=O)NO)cc2)C1 [Tubastatin A]
The method in brief:
as §1

Compound in assay [6]: CNC(=O)C1=CC=CC=C1NC2=NC(=NC=C2Cl)NC3=C(C=C(C=C3)N4CCOCC4)OC
The method in brief: as §1

Compound in a further assay: CNC(=O)c1ccc(Nc2ncc(C(F)(F)F)c(NCc3nccnc3N(C)S(C)(=O)=O)n2)cc1 [defactinib]
The method in brief: as §1

Compound in assay [7]: CNc1nc(-c2ccc3c(N)n[nH]c3c2)cc(N2C[C@@H](C(=O)NC3CCCCC3)CC[C@H]2C)n1
The method in brief:
as §1

Compound in another assay: COC(=O)N[C@@H](C)CNc1nccc(-c2cn(C(C)C)nc2-c2cc(Cl)cc(NS(C)(=O)=O)c2F)n1 [encorafenib]
The method in brief:
as §1

Compound in assay [8]: COC(=O)[C@H](CCSC)NC(=O)C1=C(C=C(C=C1)NC[C@H](CS)N)C2=CC=CC=C2
The method in brief: as §1

Compound in another assay: COc1cc(Nc2ncc3c(n2)-c2ccc(Cl)cc2C(c2c(F)cccc2OC)=NC3)ccc1C(=O)O [alisertib]
The method in brief: as §1

Compound in assay [9]: COc1cc2nc(-c3cc(F)ccc3O)nc(N[C@@H]3CNC[C@H]3C(C)(C)O)c2cc1OC
The method in brief: as §1

Compound in a further assay: COc1cc2ncnc(Nc3ccc(F)c(Cl)c3)c2cc1OCCCN1CCOCC1 [gefitinib]
The method in brief: as §1

Compound in another assay: CN1CCN(c2nc(C3=C(c4c[nH]c5ccccc45)C(=O)NC3=O)c3ccccc3n2)CC1 [sotrastaurin]
The method in brief: as §1

Some of the results follow.

On to CHIC2 (UniProt Q9UKJ5), for which the log2 fold change with vemurafenib is inactive: -0.016; in [1], inactive: -0.014; in the assay with barasertib it was inactive: 0.002; in assay [2] it was inactive: 0.105; with volasertib, inactive: 0.065; in [3], inactive: -0.02. Besides, the log2 fold change in [4] is inactive: -0.076; in [5] it was inactive: 0.076; with saracatinib it was inactive: -0.045; in the assay with alvocidib it was inactive: 0.018; with Tubastatin A, inactive: 0.061; in assay [6], inactive: 0.138. The log2 fold change with defactinib was inactive: 0.125; in assay [7], inactive: 0.013; with encorafenib, inactive: -0.022; in assay [8], inactive: -0.053; in the assay with alisertib it was inactive: -0.105; in [9] it was inactive: -0.113. Besides, the log2 fold change with gefitinib is inactive: 0.084.
As for CLASP1 isoform 4 (UniProt Q7Z460), the log2 fold change was inactive: 0.272 with vemurafenib; inactive: 0.046 in [6]; inactive: 0.223 with defactinib; inactive: 0.063 in the assay with alisertib; inactive: 0.107 in the assay with gefitinib.
With CLN5 (UniProt O75503), the log2 fold change with vemurafenib is inactive: 0.025; in assay [1], inactive: -0.064; in the assay with barasertib it was inactive: 0.187; in assay [2], inactive: -0.203; in the assay with volasertib, inactive: -0.114; in assay [4] it was inactive: 0.008. Further, the log2 fold change in assay [5] is inactive: 0.097; with alvocidib, inactive: 0.035; in assay [6], inactive: -0.034; with defactinib, inactive: 0.023; with encorafenib, inactive: -0.281; in assay [8], inactive: 0.005. Besides, the log2 fold change with alisertib was inactive: 0.173; in [9], inactive: -0.066; with gefitinib, inactive: -0.091.
CLIP1, A0A3B3ITA2: the log2 fold change with vemurafenib is inactive: -0.026; in assay [3], inactive: -0.015; in assay [4], inactive: -0.515; in assay [5] it was active: 0.634; with sotrastaurin it was inactive: -0.021; in the assay with alvocidib, inactive: -0.036. For the same target, the results for the log2 fold change with Tubastatin A and with defactinib were inactive: 0.152 and inactive: -0.077, respectively.
Regarding CHIC1 (UniProt Q5VXU3), the log2 fold change with vemurafenib is inactive: 0.042; in [4], inactive: 0.329; in assay [5], inactive: -0.161; with alvocidib, inactive: 0.066; in the assay with defactinib it was inactive: 0.017.
On to CLYBL (UniProt Q8N0X4), for which the log2 fold change was inactive: 0.012 with vemurafenib; inactive: -0.101 in assay [1]; inactive: 0.008 with barasertib; inactive: -0.01 in assay [2]; inactive: -0.033 with volasertib; inactive: 0.11 in assay [3]. Besides, the log2 fold change in assay [4] was inactive: 0.045; in assay [5], inactive: -0.024; with saracatinib it was inactive: 0.031; in the assay with sotrastaurin it was inactive: -0.116; with alvocidib, inactive: 0.02; with Tubastatin A it was inactive: 0.016. Further, the log2 fold change is inactive: 0.021 with defactinib; inactive: -0.01 in [7]; inactive: 0.149 with encorafenib; inactive: -0.003 in assay [8]; inactive: -0.335 with alisertib; inactive: 0.121 in assay [9]. Moreover, the log2 fold change with gefitinib was inactive: 0.021.
